From article PMC7485985
These are yes or no findings as the source states them, for the method shown. For part of these data: In cells and extracts the contact can be indirect. Some entries that bind do so weakly or less than the wild type. Where a sequence is shown, tags or fusion partners need not be part of it.

Protein sequences, listed by entry. Tags and fused reporters are not part of them.
UniProt Q336P5: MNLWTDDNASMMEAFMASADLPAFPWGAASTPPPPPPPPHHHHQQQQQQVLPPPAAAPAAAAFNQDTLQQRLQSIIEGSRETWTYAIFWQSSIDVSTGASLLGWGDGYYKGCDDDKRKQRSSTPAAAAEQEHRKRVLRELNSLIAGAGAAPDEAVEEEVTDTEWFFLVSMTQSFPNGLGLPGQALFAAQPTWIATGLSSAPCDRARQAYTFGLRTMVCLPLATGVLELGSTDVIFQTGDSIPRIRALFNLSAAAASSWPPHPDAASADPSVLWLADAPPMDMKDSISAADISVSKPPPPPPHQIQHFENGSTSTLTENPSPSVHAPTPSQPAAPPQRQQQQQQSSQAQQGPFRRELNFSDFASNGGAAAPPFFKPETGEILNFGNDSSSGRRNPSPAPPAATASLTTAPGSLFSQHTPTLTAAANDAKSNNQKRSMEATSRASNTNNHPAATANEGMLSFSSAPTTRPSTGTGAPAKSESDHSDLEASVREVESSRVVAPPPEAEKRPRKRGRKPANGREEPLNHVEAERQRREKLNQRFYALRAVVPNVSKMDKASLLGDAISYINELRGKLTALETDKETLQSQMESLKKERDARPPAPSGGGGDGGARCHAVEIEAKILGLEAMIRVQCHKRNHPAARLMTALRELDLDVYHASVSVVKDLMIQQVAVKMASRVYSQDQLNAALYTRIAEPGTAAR

How the values were obtained:
OsMYC2-NLuc (rice) = OsMYC2-NLuc (rice) (UniProt Q336P5); test: split reporter; Luciferase Complementation Imaging (LCI); OsMYC2-NLuc and CLuc-OsGSK2 co-infiltrated into N. benthamiana leaves; 1 mM luciferin
OsMYC2-GFP (rice) = OsMYC2-GFP (rice) (UniProt Q336P5); test: co-IP; OsMYC2-GFP and OsGSK2-Flag transiently expressed in N. benthamiana; extract in NB1 buffer; captured with GFP magnetic beads at 4°C; blots with anti-GFP and anti-Flag
MBP-OsMYC2 (rice) = MBP-OsMYC2 (rice) (UniProt Q336P5); test: SPR; Biacore T200; MBP-OsMYC2 and MBP immobilised on CM5 chip by amino groups; GST-OsGSK2 (9.375 to 130 nmol/mL) and GST (12.5 to 200 nmol/mL) as analytes; both purified

B1: CLuc-OsGSK2 (enzyme, UniProt Q60EZ2 1-402)
chain: MDQPAPAPEPMLLDAQPPAAVACDKKQQEGEAPYAEGNDAVTGHIISTTIGGKNGEPKRTISYMAERVVGTGSFGIVFQAKCLETGETVAIKKVLQDRRYKNRELQLMRAMDHPNVISLKHCFFSTTSRDELFLNLVMEYVPETLYRVLKHYSNANHRMPLIYVKLYMYQLFRGLAYIHTVPGVCHRDVKPQNVLVDPLTHQVKLCDFGSAKTLVPGEPNISYICSRYYRAPELIFGATEYTTSIDIWSAGCVLAELLLGQPLFPGESAVDQLVEIIKVLGTPTREEIRCMNPNYTEFRFPQIKAHPWHKVFHKRMPPEAIDLASRLLQYSPSLRCTALDACAHPFFDELREPNARLPNGRPFPPLFNFKHELANSSQELISRLIPEHVRRQATHNFFNTGS
In the case of B1, the binding (OsMYC2-NLuc (rice)) is reported as “binds”.

B2: OsGSK2-Flag (enzyme, UniProt Q60EZ2 1-402)
chain: MDQPAPAPEPMLLDAQPPAAVACDKKQQEGEAPYAEGNDAVTGHIISTTIGGKNGEPKRTISYMAERVVGTGSFGIVFQAKCLETGETVAIKKVLQDRRYKNRELQLMRAMDHPNVISLKHCFFSTTSRDELFLNLVMEYVPETLYRVLKHYSNANHRMPLIYVKLYMYQLFRGLAYIHTVPGVCHRDVKPQNVLVDPLTHQVKLCDFGSAKTLVPGEPNISYICSRYYRAPELIFGATEYTTSIDIWSAGCVLAELLLGQPLFPGESAVDQLVEIIKVLGTPTREEIRCMNPNYTEFRFPQIKAHPWHKVFHKRMPPEAIDLASRLLQYSPSLRCTALDACAHPFFDELREPNARLPNGRPFPPLFNFKHELANSSQELISRLIPEHVRRQATHNFFNTGS
B2 was tested, and the binding (OsMYC2-GFP (rice)) was “binds”.

B3: GST-OsGSK2 (enzyme, UniProt Q60EZ2 1-402)
chain: MDQPAPAPEPMLLDAQPPAAVACDKKQQEGEAPYAEGNDAVTGHIISTTIGGKNGEPKRTISYMAERVVGTGSFGIVFQAKCLETGETVAIKKVLQDRRYKNRELQLMRAMDHPNVISLKHCFFSTTSRDELFLNLVMEYVPETLYRVLKHYSNANHRMPLIYVKLYMYQLFRGLAYIHTVPGVCHRDVKPQNVLVDPLTHQVKLCDFGSAKTLVPGEPNISYICSRYYRAPELIFGATEYTTSIDIWSAGCVLAELLLGQPLFPGESAVDQLVEIIKVLGTPTREEIRCMNPNYTEFRFPQIKAHPWHKVFHKRMPPEAIDLASRLLQYSPSLRCTALDACAHPFFDELREPNARLPNGRPFPPLFNFKHELANSSQELISRLIPEHVRRQATHNFFNTGS
In the case of B3, the binding (MBP-OsMYC2 (rice)) is reported as “binds”.
